SMILES strings stand for the structures. The list shows only some results of the screen, not a fair sample: it gathers some chemical classes. Not every dose and run of a compound is shown. T/C is the treated group as % of the vehicle group. Schedule codes are those of the source, read here as Q, the interval in days (D) or hours (H), X, the number of doses. Some T/C values are marked as having no survivor count here; that says nothing about deaths at the dose.

The test system of the test is HT29 intrarenal xenograft, nude mice, tumor weight change. Kind of test: NCI In Vivo Anticancer Drug Screen. Data for tumor model HT29;CX-1 Human Adenocarcinoma (MER+) (intrarenal inoculation) in NU/NU BALB/C (nude) mice. The settings on record: T/C endpoint: mean tumor weight change, schedule: Q04DX004 (sc), vehicle: saline, evaluated on day 15, higher T/C = larger tumour. As for the experimental part:
The antitumor activity of compounds was measured in mice bearing transplantable tumors. Survival or tumor size were measured and the results are expressed as the measurement made in the treated group (T) divided by the measurement made in the vehicle treated control group (C). The tumor model used in this assay is HT29;CX-1 Human Adenocarcinoma (MER+) (intrarenal inoculation) in NU/NU BALB/C (nude) mice

As to `CC(=O)OC[C@]12C[C@H](OC(=O)CC(C)C)C(C)=C[C@H]1O[C@@H]1[C@H](O)[C@@H](O)[C@@]2(C)[C@@]12CO2`, the T/C reads like this: (dose: 1.0 mg/kg/injection) 103 % of control [survivor count not shown]; (dose: 2.0 mg/kg/injection) 71 % of control [survivor count not shown]; (dose: 4.0 mg/kg/injection) 78 % of control [survivor count not shown].

Source of the values: PubChem BioAssay AID208 (DTP/NCI, 2004).
